# Data published in patent US20220088024A1, “METHODS FOR TREATING CANCER USING TOZADENANT” (Biotie Therapies, Inc., priority 2018, published 2022).
# Where “and” joins values, the source holds several entries; their conditions need not be identical. Equal entries are not always repeated. This continues a long series; more values of the same kind are listed elsewhere.
# Tested on: AT-3ova CD73+ tumour (mouse breast carcinoma cell line AT-3)
# Assay: Example 3: anti-tumor responses of SYN-115 QD or BID in the AT-3ova CD73+ tumour cell mouse model (tumor area)
# Format: in vivo, C57/BL6 mice
# Design: key: tumor area, width × length in mm^2
# Details: Anti-PD-1 (200 ug)+SYN-115 (100 mg/kg) BID
# Description: The C57BL/6 mouse breast carcinoma cell line AT-3 was obtained from Dr. Trina Stewart (Griffith University, Nathan, QLD, Australia. Tumor cell lines were transduced to express chicken ovalbumin peptide and CD73 as previously described (1, 2, 3). Tumor cells are periodically verified to be Mycoplasma negative by the Victorian Infectious Diseases References Lab (Melbourne, VIC, Australia) by PCR analysis. Tumor cells were grown in DMEM supplemented with 10% FCS, GlutaMAX, and penicillin/streptomycin. 5×10^5 cells were resuspended in PBS and injected s.c. into C57/BL6 mice in a 100 μL volume. At day 14 tumors were measured and mice were randomized into distinct treatment groups to ensure that each group had tumors of similar size at the onset of treatment. Mice were treated i.p. at days 14, 18, 22, and 26 with either isotype control (2A3; 200 μg/mouse) or anti-PD-1 mAb (RMP1-14, 200 μg/mouse) and where indicated SYN-115 (Batch 71236AA002) at the indicated dose or vehicle control once or twice-daily via oral gavage on days 14 to 29. To calculate a dose of SYN-115 mouse weight was estimated to be 20 g per mouse. Therefore, 100 mg/kg=2 mg per mouse in […] which is equivalent to 10 mg/ml. To make up 40 mL, 400 milligrams of SYN-115 was weighed and added into a Falcon tube, then 1 mL of Tween 80 was added and mixed into a paste and then 39 mL of 1% Methyl Cellulose was added. The solution was vortexed and then left on a rotating mixer for at least 2 hours and maintained at 4° C. Tumor measurements were taken 2-3 times per week. Tumor sizes were determined by width * length and mice were culled when tumors reached the ethical limit of 150 mm^2.
smiles,measurement,setting,value
"COc1ccc(N2CCOCC2)c2sc(NC(=O)N3CCC(C)(O)CC3)nc12 [SYN-115, 4-hydroxy-4-methyl-piperidine-1-carboxylic acid (4-methoxy-7-morpholin-4-yl-benzothiazol-2-yl)-amide]",Raw Tumor Measurements,Day 3,21.15 and 23.32 and 19.32 and 20.28 and 26.8 and 23.03
same,Raw Tumor Measurements,Day 6,27.93 and 25.52 and 36.92 and 24.96 and 40.04 and 30.25
same,Raw Tumor Measurements,Day 9,32.33 and 36.72 and 38.4 and 35.88 and 43.46 and 41.04
same,Raw Tumor Measurements,Day 13,31.2 and 45.9 and 52.8 and 43.32 and 41.86 and 43.12
same,Raw Tumor Measurements,Day 15,39.76 and 43.52 and 52.14 and 41.76 and 50.88 and 63.36
same,Raw Tumor Measurements,Day 20,48 and 94.34 and 74 and 55.44 and 77.05 and 77.22
